Measurements reported in PubChem BioAssay AID686938 (Drosophila RNAi Screening Center, 2013).
The screen tested about 23,000 reagents; below is a random part of those that have a named target and a result. In the full data, 75 (0.33%) were called active. 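Raw plate signals without normalisation; calls rest on plate z-scores that were not deposited; ratio present for only 364 wells.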 Entries without a mark were called inactive. The numbers tell different reagents against one gene apart. A plus sign joins genes that one reagent is predicted to hit. Not given: the dose of the treatment.

Screen: 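Knock-downs reducing store-operated calcium influx in Drosophila cells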 (primary screen)
Cell system: Drosophila S2R+ cells
Reagent: long dsRNA against Drosophila genes, about 0.25 µg dsRNA per well, roughly 10,000 cells
Timing: 5 days of knock-down before the calcium assay
Conditions: thapsigargin (SERCA pump blocker) to empty calcium stores; entry signal taken 4 min after adding it
Measurement: 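Duplicate raw fluo-4 intensities per well from a plate reader, at rest and four minutes after thapsigargin emptied calcium stores; entry-to-rest ratio filled for only some wells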
Scale: calcium entry signal: higher = stronger calcium signal after store depletion; resting calcium signal: higher = higher resting calcium signal
Active means: 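Hit if the duplicate-averaged plate z-score for entry over resting signal is under −3; wells with weak total dye signal (Fmax z < −2) or more than 5 off-targets removed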
Meaning of the calls: active = strongly reduced calcium entry; inactive = no strong reduction

no.	target gene	dsRNA no.	calcium entry signal, replicate 1 (fluorescence units)	calcium entry signal, replicate 2 (fluorescence units)	resting calcium signal, replicate 1 (fluorescence units)	resting calcium signal, replicate 2 (fluorescence units)
1	Galphao (GeneID 36104)	1	4.86e7	4.42e7	2.12e7	1.94e7
2	Srp68 (GeneID 39028)	1	3.99e7	3.03e7	3.37e7	1.54e7
3	slbo (GeneID 37889)	1	3.51e7	2.21e7	1.85e7	1.17e7
4	Polr1D + DCTN6-p27	1	2.32e7	3.20e7	1.29e7	1.60e7
5	Rad51D (GeneID 35937)	1	3.90e7	4.32e7	1.84e7	1.83e7
6	l(2)dtl (GeneID 46326)	1	3.02e7		1.85e7	
7	stet (GeneID 38169)	1	3.41e7	4.30e7	1.87e7	2.15e7
8	stet (GeneID 38169)	2	3.39e7	4.26e7	1.88e7	2.13e7
9	CG7789 (GeneID 43516)	1	3.11e7	3.58e7	1.44e7	1.71e7
10	CG31556 (retired record) (GeneID 318800)	1	3.65e7	4.69e7	1.88e7	2.45e7
11	CG31556 (retired record) (GeneID 318800)	2	2.61e7	4.57e7	1.31e7	2.27e7
12	CG10339 (GeneID 37854)	1	3.10e7	4.29e7	1.72e7	1.93e7
13	Pen (GeneID 34338)	1	4.66e7		2.23e7	
14	Ctu1 (GeneID 35920)	1	2.97e7	3.50e7	1.41e7	1.54e7
15	CG31975 + ovm	1	3.62e7	3.85e7	2.26e7	1.82e7
16	DCTN2-p50 (GeneID 44086)	1	4.27e7	3.93e7	2.00e7	1.95e7
17	Or63a (GeneID 38354)	1	4.39e7	3.75e7	2.17e7	1.72e7
18	CG34056 (GeneID 38106)	1	1.98e7	3.24e7	1.07e7	1.46e7
19	ave (GeneID 246638)	1	4.18e7	3.85e7	1.68e7	1.64e7
20	lncRNA:CR43372 (GeneID 12798502)	1	4.08e7	4.13e7	5.34e7	1.83e7
21	Lsm10 (GeneID 36141)	1	4.12e7	2.16e7	1.98e7	1.37e7
22	Mid1 (GeneID 37953)	1	4.56e7	5.97e7	2.37e7	2.48e7
23	Mid1 (GeneID 37953)	2	4.70e7	3.83e7	2.29e7	2.00e7
24	Mid1 (GeneID 37953)	3	4.60e7	3.83e7	2.28e7	1.99e7
25	Mid1 (GeneID 37953)	4	4.46e7	3.16e7	2.40e7	1.69e7
26	Mid1 (GeneID 37953)	5	3.41e7	3.72e7	1.70e7	1.77e7
27	EloA (GeneID 42749)	1	4.43e7	3.84e7	1.93e7	1.60e7
28	CG6153 (GeneID 34675)	1	3.98e7		2.05e7	
29	Cyp6a23 (GeneID 36661)	1	3.05e7	3.57e7	1.59e7	1.76e7
30	Ip6k (GeneID 37465)	1	2.95e7		1.58e7	

Part of the list above in another layout:
CG6153 (GeneID 34675)
- calcium entry signal, replicate 1 (fluorescence units): 3.98e7
- resting calcium signal, replicate 1 (fluorescence units): 2.05e7

Cyp6a23 (GeneID 36661)
- calcium entry signal, replicate 1 (fluorescence units): 3.05e7
- calcium entry signal, replicate 2 (fluorescence units): 3.57e7
- resting calcium signal, replicate 1 (fluorescence units): 1.59e7
- resting calcium signal, replicate 2 (fluorescence units): 1.76e7

Ip6k (GeneID 37465)
- calcium entry signal, replicate 1 (fluorescence units): 2.95e7
- resting calcium signal, replicate 1 (fluorescence units): 1.58e7

Continued:
no.	target gene	dsRNA no.	calcium entry signal, replicate 1 (fluorescence units)	calcium entry signal, replicate 2 (fluorescence units)	resting calcium signal, replicate 1 (fluorescence units)	resting calcium signal, replicate 2 (fluorescence units)
31	CG12659 (GeneID 50403)	1	3.58e7	3.48e7	1.89e7	1.79e7
32	shtd (GeneID 32473)	1	2.38e7	2.69e7	1.39e7	1.58e7
33	Ubc7 (GeneID 44054)	1	2.60e7	2.48e7	1.41e7	1.24e7
34	pigeon (GeneID 35200)	1	4.39e7		2.35e7	
35	CG3078 (GeneID 31211)	1	3.93e7	4.14e7	1.86e7	2.09e7
36	lbe (GeneID 42542)	1	4.77e7	3.64e7	5.07e7	1.59e7
37	CG12511 (GeneID 33797)	1	3.34e7	2.76e7	1.46e7	1.30e7
38	Ir68a (GeneID 39269)	1	3.13e7	4.92e7	1.64e7	2.17e7
39	Cds (GeneID 43950)	1	4.97e7	4.54e7	2.94e7	1.97e7
40	Cpr67Fa1 (GeneID 39223)	1	2.57e7	3.48e7	1.48e7	1.57e7
41	Vlet (GeneID 32116)	1	3.32e7	3.49e7	1.58e7	1.62e7
42	CG13423 (GeneID 37315)	1	3.88e7	3.83e7	1.89e7	1.86e7
43	LeuRS-m (GeneID 38581)	1	4.80e7	3.86e7	3.33e7	1.60e7
44	Gr58b (GeneID 37502)	1	3.90e7	5.53e7	1.94e7	2.35e7
45	CG11523 (GeneID 40458)	1	3.61e7	4.78e7	1.61e7	2.97e7
46	CG18469 (GeneID 36943)	1	2.19e7	5.60e7	1.05e7	2.19e7
47	CG8478 (GeneID 41194)	1	3.29e7	3.89e7	1.52e7	1.87e7
48	me31B (GeneID 34364)	1	3.28e7		2.16e7	
49	CG17065 (GeneID 33026)	1	2.23e7	4.11e7	1.59e7	1.81e7
50	EloB (GeneID 42435)	1	2.56e7	3.94e7	1.61e7	5.91e7
51	Or59c (GeneID 37716)	1	3.41e7	3.39e7	1.71e7	1.61e7
52	CG14646 (GeneID 40555)	1	4.05e7	6.85e7	1.95e7	3.20e7
53	CG14646 (GeneID 40555)	2	2.47e7	2.47e7	1.37e7	1.17e7
54	CG7071 + Muted	1	4.61e7	5.29e7	5.00e7	2.36e7
55	MESR3 (GeneID 35116)	1	2.92e7	4.89e7	1.52e7	2.01e7
56	CG41099 (GeneID 3355072)	1	5.40e7	4.28e7	2.60e7	1.85e7
57	CG41099 (GeneID 3355072)	2	5.70e7	4.83e7	2.56e7	1.97e7
58	CG14321 (GeneID 42134)	1	1.85e7	2.97e7	2.83e7	1.24e7
